Consider twelve compounds from patent publication US5187103A, “Colorimetric method and reagent for the assay of lithium in a test sample” (Miles Inc., priority 1991, dated 1993).

A short description of data set [1]: Interference study on TECHNICON RA-1000 analyzer (second Table IV). The conditions noted are these: for recovered mM Li^+: serum with 1.0 mM LiCl. Also noted: species or system human.
Data set [2] is described as follows: Effect of organic solvent (DEGMEE) concentration on sensitivity and selectivity. The note with it: 25% DEGMEE. As to the method:
The UV-VIS spectra of p-nitrophenylazophenol (1.1.0) cryptand in complexation with various ions, i.e. Na^+ K^+, and Li^+, were determined in 1 to 2×10^-4 M solutions of the cryptand in 2 to 50% volume to volume (v/v) DEGMEE in water. A 1×10^-2 M stock solution of the cryptand was prepared in DEGMEE. Typically, the solutions were prepared as follows: for the spectral characteristics in 10% v/v DEGMEE, 0.2 ml of the stock solution was added to 0.8 ml DEGMEE. The diluted cryptand was quantitatively transferred to 9.0 ml of the appropriate reagent and mixed. 1N HCl was used to obtain the acid form (HL) and 1M TMAOH for the base form of the cryptand which is designated in the following tables as L. Tne resulting solutions were scanned from 700 to 300 nm on a Beckman DU-8 spectrophotometer. The spectra of the cation complexes of p-nitrophenylazophenol (1.1.0) cryptand in 10% v/v DEGMEE/1M TMAOH were obtained by adding 0.02 ml LiCl, KCl, NaCl, all 1N to their respective cuvettes containing 2 ml of reagent and scanned from 700 to 300 nm.
However, high concentration of solvent also affects the selectivity; at 25% DEGMEE, interference by 140 mM Na^+ corresponds to 0.1 mM Li^+, which is not acceptable for clinical purposes. The selectivity requirements of the lithium assay are high, in certain cases where the concentration of lithium is near 0.1 mM, the molar ratio of Li^+ :Na^+ is about 1:1500. […]

As for `O=C1O[C@H]([C@@H](O)CO)C(O)=C1O` [Ascorbic Acid], the “recovered mM Li^+” value in data set [1] (interferent at 50 mg/dl) is listed as 0.98 mM. Consider `C=CC1=C(C)/C(=C/c2[nH]c(Cc3[nH]c(/C=C4\NC(=O)C(C)=C4C=C)c(C)c3CCC(=O)O)c(CCC(=O)O)c2C)NC1=O` [Bilirubin], for which the “bilirubin level not requiring sample blank correction” value in data set [1] (icteric samples) is given as “up to 10 mg/dl”. Further, in data set [1] (interferent at 10 mg/dl), the “recovered mM Li^+” value is given as 1.00 mM.

Consider `CN1CC(=O)NC1=N` [Creatinine], for which the “recovered mM Li^+” value in data set [1] (interferent at 50 mg/dl) was 0.98 mM. On to `CCO` [Ethanol], for which the “recovered mM Li^+” value in data set [1] (interferent at 150 mg/dl) stood at 1.00 mM.

Take `O=C[C@H](O)[C@@H](O)[C@H](O)[C@H](O)CO` [Glucose]: the “recovered mM Li^+” value in data set [1] (interferent at 4 g/dl) was 0.99 mM.

Turning to `CC(O)C(=O)O` (centres unmarked) [Lactic Acid], the “recovered mM Li^+” value in data set [1] (interferent at 85 mg/dl) was determined as 1.00 mM. Take `Cl.N` [NH4 Cl]: the “recovered mM Li^+” value in data set [1] (interferent at 2 mM) turned out to be 1.00 mM. As for `[Cl-].[Na+]` [NaCl], the “recovered mM Li^+” value in data set [1] (interferent at 200 mM) and in data set [1] (interferent at 500 mM) was 0.98 mM in each case.

On to `NC(N)=O` [Urea], for which the “recovered mM Li^+” value in data set [1] (interferent at 50 mg/dl) was found to be 1.02 mM. The same measure, in the same setting: next, `O=c1[nH]c(=O)c2[nH]c(=O)[nH]c2[nH]1` [Uric Acid]: 1.00 mM. For the compound `O=[N+]([O-])c1ccc(N=Nc2cc3c(O)c(c2)CCN2CCOCCN(CCOCC2)CC3)cc1` [p-nitrophenylazophenol (1.1.0) cryptand], the “interference by 140 mM Na^+, corresponding Li^+ concentration” value in data set [2] turned out to be 0.1 mM.

On to “Hb: potential interfering substance, 60 mg/dl Hb (1% hemolysis)”, for which the “recovered mM Li^+” value in data set [1] (interferent at 60 mg/dl (1% hemolysis)) is given as 1.13 mM.
